Paper PMC10250352
These are yes or no findings as the source states them, for the method shown. Binding seen in cells or lysates may run through a third protein. For some of these results: A result given as binding can be weak or reduced; the word gives no strength. For some of these results: Tags and fused reporters may be left off the sequences shown.

Assays:
[1] = target: T1, ESA-1^(3 x FLAG) (Neurospora crassa) (UniProt Q7S9B6); test: co-IP; sequential: lysate of bye-1^(3 x HA)/brd-8^V5/esa-1^(3 x FLAG) grown in constant light, first IP on FLAG-antibody resin, elution with 3 x FLAG peptide, second IP of the eluate on V5-antibody resin; bye-1^(3 x HA) as negative control
T1 sequence: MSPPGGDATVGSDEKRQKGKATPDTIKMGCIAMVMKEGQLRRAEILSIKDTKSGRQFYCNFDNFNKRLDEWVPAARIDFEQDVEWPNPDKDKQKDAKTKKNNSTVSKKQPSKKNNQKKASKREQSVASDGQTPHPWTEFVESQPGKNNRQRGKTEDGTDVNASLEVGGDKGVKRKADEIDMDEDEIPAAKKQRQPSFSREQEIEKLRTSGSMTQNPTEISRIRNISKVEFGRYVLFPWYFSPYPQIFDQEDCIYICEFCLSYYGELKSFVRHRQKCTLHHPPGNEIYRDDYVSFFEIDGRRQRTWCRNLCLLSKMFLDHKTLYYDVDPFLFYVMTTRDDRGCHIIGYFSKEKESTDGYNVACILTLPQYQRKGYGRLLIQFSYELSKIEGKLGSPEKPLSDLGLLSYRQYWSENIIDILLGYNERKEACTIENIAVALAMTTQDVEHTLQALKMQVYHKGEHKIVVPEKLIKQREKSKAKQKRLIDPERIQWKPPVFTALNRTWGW

[2] = target: T1, ESA-1^(3 x FLAG) (Neurospora crassa); test: co-IP; immunodepletion from cultures grown in constant light: BRD-8^V5 depleted with V5 antibody, or ESA-1^(3 x FLAG) depleted by two FLAG IPs and the supernatant then pulled down with V5 resin
[3] = target: BRD-8^V5 (BRD-8 C-terminally tagged with V5) (Neurospora crassa) (UniProt Q7SC01); test: co-IP; 2 mg of total Neurospora protein with 20 uL V5 agarose or FLAG M2 resin, 4 °C for 2 h; washed twice with 50 mM HEPES pH 7.4, 137 mM NaCl, 10% glycerol, 0.4% NP-40; Western blot for the epitope tags
[4] = target: brd-8^∆349-702 (V5-tagged) (Neurospora crassa); test: as above
[5] = target: BRD-8^∆703-1029 (V5-tagged) (Neurospora crassa); test: as above
[6] = target: brd-8^∆1030-1306 (V5-tagged) (Neurospora crassa); test: as above
[7] = target: BRD-8^∆2-348 (V5-tagged) (Neurospora crassa); test: as above
[8] = target: BRD-8^V5 (BRD-8 C-terminally tagged with V5) (Neurospora crassa) (UniProt Q7SC01); test: co-IP; immunodepletion from cultures grown in constant light: BRD-8^V5 depleted with V5 antibody, or ESA-1^(3 x FLAG) depleted by two FLAG IPs and the supernatant then pulled down with V5 resin
[9] = target: Neurospora BRD-8^V5 co-expressed in E. coli (Neurospora crassa) (UniProt Q7SC01); test: co-IP; Neurospora BRD-8^V5 co-expressed with BYE-1, ARP-4 or EPL-1 in E. coli; immunoprecipitation

Molecule: BRD-8^V5 (BRD-8 C-terminally tagged with V5) (from UniProt Q7SC01)
- binding [1]: binds
- binding [2]: binds

B1: YAF-9 tagged with 3 x FLAG or V5 (protein, UniProt Q7RZK7 1-309)
chain: MAPPTGKRVKGVQIFRPFVYGTTARPFDEKTNPKPPGIPDDHTHSWTVFIKGIDDVDITYWLRRVQFKLHESIPNHVRMVEGVKGQPFQIHETGWGEFEITMKLYYVPESSEKPQTLYHHLRLHPFGRTEEEKEAMRLNGGEVISWVYEEQIFNEPYEPFYDILISGALPPSASTLKDGGGGGGSGAATPTSANTPGASSSKGGNKKGHERSHSRASVSTNKDGKNNNESKEEPFVIQKSEGGVLERSAMIPLVNRPGQPFSRETEQLEIQKLKEAKLKVDEMKKQMMEELEKKQKRLEALRAESAKAP
- binding [3]: binds

B2: ESA-1 tagged with 3 x FLAG or V5 (enzyme, UniProt Q7S9B6 1-506)
chain: MSPPGGDATVGSDEKRQKGKATPDTIKMGCIAMVMKEGQLRRAEILSIKDTKSGRQFYCNFDNFNKRLDEWVPAARIDFEQDVEWPNPDKDKQKDAKTKKNNSTVSKKQPSKKNNQKKASKREQSVASDGQTPHPWTEFVESQPGKNNRQRGKTEDGTDVNASLEVGGDKGVKRKADEIDMDEDEIPAAKKQRQPSFSREQEIEKLRTSGSMTQNPTEISRIRNISKVEFGRYVLFPWYFSPYPQIFDQEDCIYICEFCLSYYGELKSFVRHRQKCTLHHPPGNEIYRDDYVSFFEIDGRRQRTWCRNLCLLSKMFLDHKTLYYDVDPFLFYVMTTRDDRGCHIIGYFSKEKESTDGYNVACILTLPQYQRKGYGRLLIQFSYELSKIEGKLGSPEKPLSDLGLLSYRQYWSENIIDILLGYNERKEACTIENIAVALAMTTQDVEHTLQALKMQVYHKGEHKIVVPEKLIKQREKSKAKQKRLIDPERIQWKPPVFTALNRTWGW
- binding [3]: binds

B3: ESA-1^(3 x FLAG) (enzyme, UniProt Q7S9B6 1-506)
chain: MSPPGGDATVGSDEKRQKGKATPDTIKMGCIAMVMKEGQLRRAEILSIKDTKSGRQFYCNFDNFNKRLDEWVPAARIDFEQDVEWPNPDKDKQKDAKTKKNNSTVSKKQPSKKNNQKKASKREQSVASDGQTPHPWTEFVESQPGKNNRQRGKTEDGTDVNASLEVGGDKGVKRKADEIDMDEDEIPAAKKQRQPSFSREQEIEKLRTSGSMTQNPTEISRIRNISKVEFGRYVLFPWYFSPYPQIFDQEDCIYICEFCLSYYGELKSFVRHRQKCTLHHPPGNEIYRDDYVSFFEIDGRRQRTWCRNLCLLSKMFLDHKTLYYDVDPFLFYVMTTRDDRGCHIIGYFSKEKESTDGYNVACILTLPQYQRKGYGRLLIQFSYELSKIEGKLGSPEKPLSDLGLLSYRQYWSENIIDILLGYNERKEACTIENIAVALAMTTQDVEHTLQALKMQVYHKGEHKIVVPEKLIKQREKSKAKQKRLIDPERIQWKPPVFTALNRTWGW
- binding [4]: binds
- binding [5]: binds
- binding [6]: binds
- binding [3]: binds
- binding [7]: no binding
- binding [8]: binds

B4: ARP-4 co-expressed in E. coli (protein, UniProt Q7SHR0 1-469)
chain: MSHQQPLSSSVQPTDIYGGDEVSALVLDPGYCNTRAGYAGEEMPKQVLPSFYGHINGRDVFGDEYIVPKPGFEVRNYMNRDSVVEDWDAATRMWEHVLVKRLQPERSTPPSKKGINISDDGDVPMEDDGNNNEDATDALEKPLAENPLLMTEAPWNSPKAREKAIEISMETWGVPAFWLSKTPVLAAFAAGKATALVIDVGGANTSVTAIHDGMVLKRSIQRSPVGGVWLSSQICKMWDGSEPKVDVVPRFMVESKKPVEAGAPAEANLRKFNFDIHPSFRAYEEERVLTEFKESVVEVWRGPQRFTTPGNEDAVRTQPGRVFEMPDGSNQMWREQRFKVSEGMWDETAAYNSTDEEGRVTKAQTIPALIKAALEGVDVDLRPNILGNVVVTGSTSLLNGFNDRLNHELAQMYPGVKIKIHAAGLTTERRFGAWIGGSILASLGTFHQMWISRKEYDENGAGIVEKRCK
- binding [9]: binds

B5: EPL-1 co-expressed in E. coli (protein, UniProt Q7S747 1-589)
chain: MATRKVRYKKLSVKTQLAVLREDQIEASEYESLTSENQIATGVEQAEENEYHLQAVLKGAGVAADQEIPVPPPQQSELDYDQFYPQKVAKTSTYIRFSQTVEECISCLYDMTEDDETFLKSYNMKLTPSARLSEDDFERIMDVYEDMAANITPFSAIDQTVPSYQEMLRGLEPLDSTKVMVHAKQIYEYWKSRREISKNRPLNPTLKFETHAESDELDPYVCFRRREIRQTRKTRARDVQSADKLKRLRKELEEGRQLILAAHNRELLKADMLKVERAIFDQRAIIKEQKLRLGIRTGDEDLVNQKPQKRKAPEAPSAQRPPPPPQIRMPVRPDGRPAESDLVQLSDRLAEKNAELIIEIEKKIQNHIDWNKNYVDLTGKPLSPVQGPRQDLGFRPAKTQYLMTPPASASSGSMDEPTPMDLDKPKPNPPPPVKFRGVAQDEQSLAHPPSYRRRIGRLNRLWIDRRGLPSPARDLSEEQSDRWKYDQSSDDEDDAPVYMLDPFDTKALRYRASIPLQTVTRPPPPVINRQFIPPGAVPQQLAQSSFAPGQPQPQSQPQPNQSQSLPLPQPQQPVAQPQPQPQPQAQPVS
- binding [9]: binds

B6: EAF-6 tagged with 3 x FLAG or V5 (protein, UniProt Q7SDW6 1-187)
chain: MMDNSGPKMGAADGAAGIPYYEKQRQHLKELLNKKKLLEKRLLAQEESIYQKETEYLENTPAGNIITGFDNYTKGTANVAAQRRKTGLTDANRVFSRSSISYNPAAQQDSQTPASSAPASHAPTPVSTSFNNKDGASSAPTPTSATAGKANSKKKKAATSGGAGVEDSETDSRETKKARTNFGAVRK
- binding [3]: binds
